The source of these data is the supplement of paper PMC8728848.

The other results are listed elsewhere or left out.

Common to all, as to test: glycan array binding signal (z-score within array); higher = stronger binding
What all share (conditions): glycan notation: IUPAC condensed, linker removed

Assay [1] deals with Neu5Ac(a2-6)Gal(b1-3)GlcNAc(b1-3)[Gal(b1-4)GlcNAc(b1-6)]Gal(b1-4)Glc. The method in brief:
(§1)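 From the Consortium for Functional Glycomics database, 3228 arrays were curated, keeping only those whose protein sequence was available. Binding is given as a within-array Z-score averaged across arrays sharing a protein sequence and across linkers. Negative Z-scores can be read as non-binding.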

Another assay concerns the target Neu5Ac(a2-6)Gal(b1-4)Glc. The method in brief: as §1
Assay [2] concerns the target Neu5Ac(a2-6)Gal(b1-4)GlcNAc. The method in brief:
as §1

The target in assay [3] is Neu5Ac(a2-6)Gal(b1-4)GlcNAc(b1-2)Man. The method in brief:
as §1

Assay [4] has as its target Neu5Ac(a2-6)Gal(b1-4)GlcNAc(b1-2)Man(a1-3)Man(b1-4)GlcNAc(b1-4)GlcNAc. An outline of the steps: as §1
In assay [5] the target is Neu5Ac(a2-6)Gal(b1-4)GlcNAc(b1-2)Man(a1-3)[Gal(b1-4)GlcNAc(b1-2)Man(a1-6)]Man(b1-4)GlcNAc(b1-4)GlcNAc. The method in brief: as §1
In assay [6] the target is Neu5Ac(a2-6)Gal(b1-4)GlcNAc(b1-2)Man(a1-3)[GlcNAc(b1-4)][Neu5Ac(a2-6)Gal(b1-4)GlcNAc(b1-2)Man(a1-6)]Man(b1-4)GlcNAc(b1-4)GlcNAc. The method in brief:
as §1

Assay [7] addresses Neu5Ac(a2-6)Gal(b1-4)GlcNAc(b1-2)Man(a1-3)[Man(a1-6)]Man(b1-4)GlcNAc(b1-4)GlcNAc. An outline of the steps:
as §1

Assay [8] deals with Neu5Ac(a2-6)Gal(b1-4)GlcNAc(b1-2)Man(a1-3)[Neu5Ac(a2-3)Gal(b1-4)GlcNAc(b1-2)Man(a1-6)]Man(b1-4)GlcNAc(b1-4)GlcNAc. An outline of the steps: as §1
Assay [9] addresses Neu5Ac(a2-6)Gal(b1-4)GlcNAc(b1-2)Man(a1-3)[Neu5Ac(a2-6)Gal(b1-4)GlcNAc(b1-2)Man(a1-6)]Man(b1-4)GlcNAc(b1-4)GlcNAc. An outline of the steps: as §1
The target in assay [10] is Neu5Ac(a2-6)Gal(b1-4)GlcNAc(b1-2)Man(a1-3)[Neu5Ac(a2-6)Gal(b1-4)GlcNAc(b1-2)Man(a1-6)]Man(b1-4)GlcNAc(b1-4)[Fuc(a1-6)]GlcNAc. An outline of the steps:
as §1

The target in assay [11] is Neu5Ac(a2-6)Gal(b1-4)GlcNAc(b1-2)Man(a1-6)Man(b1-4)GlcNAc(b1-4)GlcNAc. An outline of the steps:
as §1

Assay [12] concerns the target Neu5Ac(a2-6)Gal(b1-4)GlcNAc(b1-2)Man(a1-6)[Gal(b1-4)GlcNAc(b1-2)Man(a1-3)]Man(b1-4)GlcNAc(b1-4)GlcNAc. The method in brief:
as §1

Assay [13] concerns the target Neu5Ac(a2-6)Gal(b1-4)GlcNAc(b1-2)Man(a1-6)[GlcNAc(b1-2)Man(a1-3)]Man(b1-4)GlcNAc(b1-4)GlcNAc. The method in brief: as §1
Assay [14] has as its target Neu5Ac(a2-6)Gal(b1-4)GlcNAc(b1-2)Man(a1-6)[Man(a1-3)]Man(b1-4)GlcNAc(b1-4)GlcNAc. An outline of the steps: as §1
The target in assay [15] is Neu5Ac(a2-6)Gal(b1-4)GlcNAc(b1-2)[Neu5Ac(a2-6)Gal(b1-4)GlcNAc(b1-4)]Man(a1-3)[GlcNAc(b1-4)][Neu5Ac(a2-6)Gal(b1-4)GlcNAc(b1-2)[Neu5Ac(a2-6)Gal(b1-4)GlcNAc(b1-6)]Man(a1-6)]Man(b1-4)GlcNAc(b1-4)GlcNAc. An outline of the steps:
as §1

Assay [16] addresses Neu5Ac(a2-6)Gal(b1-4)GlcNAc(b1-2)[Neu5Ac(a2-6)Gal(b1-4)GlcNAc(b1-4)]Man(a1-3)[GlcNAc(b1-4)][Neu5Ac(a2-6)Gal(b1-4)GlcNAc(b1-4)Man(a1-6)]Man(b1-4)GlcNAc(b1-4)GlcNAc. The method in brief:
as §1

For assay [17], the target named is Neu5Ac(a2-6)Gal(b1-4)GlcNAc(b1-2)[Neu5Ac(a2-6)Gal(b1-4)GlcNAc(b1-6)]Man(a1-6)[Neu5Ac(a2-6)Gal(b1-4)GlcNAc(b1-2)Man(a1-3)][GlcNAc(b1-4)]Man(b1-4)GlcNAc(b1-4)GlcNAc. An outline of the steps: as §1
Assay [18] addresses Neu5Ac(a2-6)Gal(b1-4)GlcNAc(b1-3)Gal(b1-3)GlcNAc. The method in brief:
as §1

Assay [19] addresses Neu5Ac(a2-6)Gal(b1-4)GlcNAc(b1-3)Gal(b1-4)GlcNAc. An outline of the steps:
as §1

The target of assay [20] is Neu5Ac(a2-6)Gal(b1-4)GlcNAc(b1-3)Gal(b1-4)GlcNAc(b1-2)Man(a1-3)[Neu5Ac(a2-6)Gal(b1-4)GlcNAc(b1-3)Gal(b1-4)GlcNAc(b1-2)Man(a1-6)]GalNAc. An outline of the steps: as §1
Assay [21] has as its target Neu5Ac(a2-6)Gal(b1-4)GlcNAc(b1-3)Gal(b1-4)GlcNAc(b1-3)Gal(b1-4)GlcNAc. The method in brief:
as §1

In assay [22] the target is Neu5Ac(a2-6)Gal(b1-4)GlcNAc(b1-3)Gal(b1-4)GlcNAc(b1-3)Gal(b1-4)GlcNAc(b1-2)Man(a1-3)[Neu5Ac(a2-6)Gal(b1-4)GlcNAc(b1-3)Gal(b1-4)GlcNAc(b1-3)Gal(b1-4)GlcNAc(b1-2)Man(a1-6)]GalNAc. An outline of the steps:
as §1

B1: Mermaid1 (Stilbonema majum) (protein)
chain: MGSSHHHHHHSSGLVPRGSHMAASGWLRSPQGTVVKLYRRSLSWSKADEFCKDVDGRLVVDRTADMHLFLIKNVLKEKKSRVWVGLRRTAPHSRTWIWSDGTRQNEDDLDANLWLRDEPNDAAGEEECALFMYSPWEKAWGLNDYLCRGGCRSYQFICEKWIR
Take B1: the “glycan array binding signal (z-score)” value in assay [1] is -0.806; with Neu5Ac(a2-6)Gal(b1-4)Glc it was -0.714; in assay [2], -0.452; in assay [3], 0.757; in assay [4], -0.059; in assay [5], 0.924. Further, the “glycan array binding signal (z-score)” value is -0.894 in assay [6]; 0.349 in [7]; -0.455 in [8]; -0.383 in assay [9]; -0.708 in assay [10]; -0.437 in [11]. The “glycan array binding signal (z-score)” value was -0.858 in [12]; -0.629 in assay [13]; -0.575 in assay [14]; 0.087 in assay [15]; -0.884 in assay [16]; -0.834 in [17]. Further, the “glycan array binding signal (z-score)” value in [18] was -0.602; in [19], -0.751; in assay [20], 0.846; in assay [21], -0.271; in assay [22] it was 0.874.
